Experimental data from the supplement of paper PMC10849652.
The other results are listed elsewhere or left out.

Sequences of proteins named here, by UniProt entry; tags and fusion partners are left off. A change or cut given only in a name is not applied to a line headed by its entry.
UniProt O95602, whole entry, looked up: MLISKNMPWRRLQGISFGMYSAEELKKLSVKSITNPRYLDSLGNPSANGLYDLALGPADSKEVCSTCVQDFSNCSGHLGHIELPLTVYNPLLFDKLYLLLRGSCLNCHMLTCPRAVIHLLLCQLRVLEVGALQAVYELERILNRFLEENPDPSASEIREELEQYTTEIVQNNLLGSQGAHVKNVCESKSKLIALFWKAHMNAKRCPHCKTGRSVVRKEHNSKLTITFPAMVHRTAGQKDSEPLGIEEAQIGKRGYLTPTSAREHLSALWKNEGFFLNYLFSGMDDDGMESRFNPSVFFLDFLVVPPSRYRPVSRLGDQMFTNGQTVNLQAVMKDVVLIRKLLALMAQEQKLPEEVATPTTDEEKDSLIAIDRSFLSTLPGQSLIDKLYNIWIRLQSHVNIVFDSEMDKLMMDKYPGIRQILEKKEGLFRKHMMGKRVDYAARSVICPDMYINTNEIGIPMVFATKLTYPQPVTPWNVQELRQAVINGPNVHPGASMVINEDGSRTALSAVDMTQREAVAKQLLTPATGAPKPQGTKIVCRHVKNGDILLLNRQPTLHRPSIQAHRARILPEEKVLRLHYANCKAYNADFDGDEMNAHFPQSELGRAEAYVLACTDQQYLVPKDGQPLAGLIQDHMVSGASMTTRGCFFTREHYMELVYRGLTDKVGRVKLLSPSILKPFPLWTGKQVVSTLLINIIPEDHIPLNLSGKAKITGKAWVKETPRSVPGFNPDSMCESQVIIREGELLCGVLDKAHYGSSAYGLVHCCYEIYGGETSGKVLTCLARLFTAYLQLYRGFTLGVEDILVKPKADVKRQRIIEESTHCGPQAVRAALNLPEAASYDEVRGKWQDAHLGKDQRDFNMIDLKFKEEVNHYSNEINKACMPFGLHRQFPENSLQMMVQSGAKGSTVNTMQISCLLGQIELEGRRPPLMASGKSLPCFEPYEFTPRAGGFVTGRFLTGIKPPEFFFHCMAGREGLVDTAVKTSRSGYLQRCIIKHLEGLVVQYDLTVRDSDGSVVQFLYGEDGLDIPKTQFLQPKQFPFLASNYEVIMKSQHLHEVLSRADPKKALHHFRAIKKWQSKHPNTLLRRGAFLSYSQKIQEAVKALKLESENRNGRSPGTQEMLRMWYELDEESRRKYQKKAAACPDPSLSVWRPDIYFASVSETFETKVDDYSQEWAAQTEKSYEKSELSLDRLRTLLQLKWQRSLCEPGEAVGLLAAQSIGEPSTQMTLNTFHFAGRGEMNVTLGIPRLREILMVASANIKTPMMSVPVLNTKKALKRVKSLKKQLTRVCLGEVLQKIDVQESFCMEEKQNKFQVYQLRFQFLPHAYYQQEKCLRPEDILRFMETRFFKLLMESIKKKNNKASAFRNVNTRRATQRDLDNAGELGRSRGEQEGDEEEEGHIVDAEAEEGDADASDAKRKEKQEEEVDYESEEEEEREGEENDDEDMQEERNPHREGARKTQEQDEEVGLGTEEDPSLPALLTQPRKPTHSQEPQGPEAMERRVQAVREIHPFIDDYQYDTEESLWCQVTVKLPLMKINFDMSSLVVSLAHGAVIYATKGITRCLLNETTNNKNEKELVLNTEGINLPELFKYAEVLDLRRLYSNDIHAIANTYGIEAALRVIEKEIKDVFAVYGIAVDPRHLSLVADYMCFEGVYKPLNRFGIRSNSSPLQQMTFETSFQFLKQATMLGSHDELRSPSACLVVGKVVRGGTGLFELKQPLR
UniProt Q8WZA1: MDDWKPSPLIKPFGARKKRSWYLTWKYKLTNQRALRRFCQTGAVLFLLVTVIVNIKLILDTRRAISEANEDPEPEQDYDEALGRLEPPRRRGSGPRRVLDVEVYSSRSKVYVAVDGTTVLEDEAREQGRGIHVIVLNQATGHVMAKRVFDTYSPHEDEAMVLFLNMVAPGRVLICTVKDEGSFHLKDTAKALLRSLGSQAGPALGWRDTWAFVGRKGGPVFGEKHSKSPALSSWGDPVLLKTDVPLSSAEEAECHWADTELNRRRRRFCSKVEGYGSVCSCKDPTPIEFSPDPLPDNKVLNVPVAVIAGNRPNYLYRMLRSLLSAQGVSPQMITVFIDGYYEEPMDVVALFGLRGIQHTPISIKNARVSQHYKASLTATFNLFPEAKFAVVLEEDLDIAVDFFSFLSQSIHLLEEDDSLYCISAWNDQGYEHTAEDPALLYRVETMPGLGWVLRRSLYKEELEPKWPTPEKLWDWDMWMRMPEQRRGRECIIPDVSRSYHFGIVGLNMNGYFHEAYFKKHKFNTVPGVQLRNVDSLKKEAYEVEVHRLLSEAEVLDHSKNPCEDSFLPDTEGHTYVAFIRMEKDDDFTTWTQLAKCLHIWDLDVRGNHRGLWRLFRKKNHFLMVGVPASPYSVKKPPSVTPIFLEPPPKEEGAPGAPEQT
UniProt Q8N490: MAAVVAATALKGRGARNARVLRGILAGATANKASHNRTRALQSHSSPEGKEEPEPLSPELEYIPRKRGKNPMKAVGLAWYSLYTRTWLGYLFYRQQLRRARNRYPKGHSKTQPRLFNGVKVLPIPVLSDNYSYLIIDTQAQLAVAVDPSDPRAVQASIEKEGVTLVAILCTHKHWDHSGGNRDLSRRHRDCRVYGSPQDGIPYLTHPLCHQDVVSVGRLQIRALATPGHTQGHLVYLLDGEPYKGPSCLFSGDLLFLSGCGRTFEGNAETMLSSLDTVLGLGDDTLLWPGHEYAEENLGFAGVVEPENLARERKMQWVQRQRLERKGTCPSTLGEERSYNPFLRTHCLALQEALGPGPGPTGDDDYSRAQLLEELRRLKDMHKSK
UniProt P0DPB6, whole entry, looked up: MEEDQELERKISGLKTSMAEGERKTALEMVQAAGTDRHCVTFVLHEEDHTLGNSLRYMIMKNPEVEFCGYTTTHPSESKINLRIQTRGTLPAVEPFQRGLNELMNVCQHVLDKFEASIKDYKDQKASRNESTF
UniProt Q6P1K2: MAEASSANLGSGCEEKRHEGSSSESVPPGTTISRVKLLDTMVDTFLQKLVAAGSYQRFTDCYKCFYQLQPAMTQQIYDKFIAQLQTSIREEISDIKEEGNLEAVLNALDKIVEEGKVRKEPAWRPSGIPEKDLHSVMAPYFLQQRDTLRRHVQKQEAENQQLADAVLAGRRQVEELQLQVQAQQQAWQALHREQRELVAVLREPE
UniProt A5A3E0, whole entry, looked up: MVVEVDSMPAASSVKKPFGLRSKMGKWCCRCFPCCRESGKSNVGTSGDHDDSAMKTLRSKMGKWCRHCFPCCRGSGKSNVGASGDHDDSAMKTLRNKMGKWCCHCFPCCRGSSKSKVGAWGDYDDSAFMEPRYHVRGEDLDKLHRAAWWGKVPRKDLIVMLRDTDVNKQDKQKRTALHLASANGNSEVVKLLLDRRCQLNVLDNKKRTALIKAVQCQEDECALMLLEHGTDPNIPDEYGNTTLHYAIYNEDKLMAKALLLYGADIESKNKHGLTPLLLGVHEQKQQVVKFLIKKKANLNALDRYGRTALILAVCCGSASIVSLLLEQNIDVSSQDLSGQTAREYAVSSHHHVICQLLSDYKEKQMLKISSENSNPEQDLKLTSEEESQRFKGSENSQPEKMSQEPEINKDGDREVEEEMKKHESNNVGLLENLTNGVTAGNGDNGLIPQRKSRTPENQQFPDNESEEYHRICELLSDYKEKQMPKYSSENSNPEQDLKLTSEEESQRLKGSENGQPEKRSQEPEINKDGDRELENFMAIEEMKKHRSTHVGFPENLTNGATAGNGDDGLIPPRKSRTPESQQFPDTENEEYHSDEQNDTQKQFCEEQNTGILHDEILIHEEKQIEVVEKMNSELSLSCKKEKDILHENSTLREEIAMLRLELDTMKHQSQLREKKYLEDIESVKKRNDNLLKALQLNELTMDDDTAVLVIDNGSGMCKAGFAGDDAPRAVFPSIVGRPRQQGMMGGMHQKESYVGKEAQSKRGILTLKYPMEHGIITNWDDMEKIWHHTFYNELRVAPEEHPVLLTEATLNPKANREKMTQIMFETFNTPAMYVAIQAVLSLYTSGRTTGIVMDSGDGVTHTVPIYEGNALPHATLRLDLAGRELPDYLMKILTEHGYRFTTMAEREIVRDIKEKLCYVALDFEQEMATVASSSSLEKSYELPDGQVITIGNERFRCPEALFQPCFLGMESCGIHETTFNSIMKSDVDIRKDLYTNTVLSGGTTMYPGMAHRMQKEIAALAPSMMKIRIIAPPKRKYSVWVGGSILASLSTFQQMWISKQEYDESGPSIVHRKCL
UniProt Q9BY77: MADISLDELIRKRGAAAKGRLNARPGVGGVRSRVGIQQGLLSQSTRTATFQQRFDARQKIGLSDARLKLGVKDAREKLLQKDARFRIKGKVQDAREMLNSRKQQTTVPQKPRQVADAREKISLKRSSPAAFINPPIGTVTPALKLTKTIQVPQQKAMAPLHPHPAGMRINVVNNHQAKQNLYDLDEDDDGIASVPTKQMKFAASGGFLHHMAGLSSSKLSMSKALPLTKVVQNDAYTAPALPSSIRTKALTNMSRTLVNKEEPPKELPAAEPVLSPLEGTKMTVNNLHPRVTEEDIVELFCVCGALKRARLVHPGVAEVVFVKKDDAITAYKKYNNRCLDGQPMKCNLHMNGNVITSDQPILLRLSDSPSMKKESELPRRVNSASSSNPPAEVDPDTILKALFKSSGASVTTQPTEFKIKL
UniProt P53350, whole entry, looked up: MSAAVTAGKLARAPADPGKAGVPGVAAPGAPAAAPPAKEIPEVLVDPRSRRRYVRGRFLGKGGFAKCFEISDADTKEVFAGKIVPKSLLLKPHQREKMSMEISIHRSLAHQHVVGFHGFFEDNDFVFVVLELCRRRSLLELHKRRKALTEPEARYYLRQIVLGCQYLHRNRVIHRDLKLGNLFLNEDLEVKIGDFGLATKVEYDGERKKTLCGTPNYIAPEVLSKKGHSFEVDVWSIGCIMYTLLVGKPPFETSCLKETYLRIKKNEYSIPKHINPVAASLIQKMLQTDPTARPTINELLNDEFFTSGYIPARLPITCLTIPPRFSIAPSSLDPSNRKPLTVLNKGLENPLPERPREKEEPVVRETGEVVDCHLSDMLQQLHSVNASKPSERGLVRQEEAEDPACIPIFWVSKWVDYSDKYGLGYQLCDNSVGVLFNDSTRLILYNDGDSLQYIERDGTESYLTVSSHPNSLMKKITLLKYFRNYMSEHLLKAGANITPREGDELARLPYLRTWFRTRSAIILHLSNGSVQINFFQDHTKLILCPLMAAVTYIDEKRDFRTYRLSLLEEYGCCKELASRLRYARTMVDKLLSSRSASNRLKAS
UniProt P29590: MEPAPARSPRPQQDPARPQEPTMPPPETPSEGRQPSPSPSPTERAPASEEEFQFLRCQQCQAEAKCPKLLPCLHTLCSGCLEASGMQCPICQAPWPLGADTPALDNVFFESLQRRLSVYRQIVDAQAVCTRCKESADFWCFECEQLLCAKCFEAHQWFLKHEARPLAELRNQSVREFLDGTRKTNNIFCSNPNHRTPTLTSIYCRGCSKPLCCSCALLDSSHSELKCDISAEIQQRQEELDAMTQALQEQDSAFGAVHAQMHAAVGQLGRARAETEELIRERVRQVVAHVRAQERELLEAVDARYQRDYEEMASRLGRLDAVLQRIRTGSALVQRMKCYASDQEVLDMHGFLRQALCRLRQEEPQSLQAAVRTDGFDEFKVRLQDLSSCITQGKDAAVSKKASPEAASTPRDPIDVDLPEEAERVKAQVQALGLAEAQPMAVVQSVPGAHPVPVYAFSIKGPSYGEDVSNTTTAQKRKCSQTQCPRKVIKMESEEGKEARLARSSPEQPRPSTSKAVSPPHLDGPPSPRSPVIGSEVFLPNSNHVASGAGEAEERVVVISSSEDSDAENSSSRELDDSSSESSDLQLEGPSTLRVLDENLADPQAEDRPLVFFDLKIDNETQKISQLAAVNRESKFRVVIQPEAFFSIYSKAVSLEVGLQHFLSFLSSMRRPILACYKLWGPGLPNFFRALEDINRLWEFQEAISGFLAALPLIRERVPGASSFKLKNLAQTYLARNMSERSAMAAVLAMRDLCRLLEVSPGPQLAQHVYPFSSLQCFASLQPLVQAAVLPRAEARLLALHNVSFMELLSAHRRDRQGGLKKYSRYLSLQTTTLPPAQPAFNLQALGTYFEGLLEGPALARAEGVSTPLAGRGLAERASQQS
UniProt O75688: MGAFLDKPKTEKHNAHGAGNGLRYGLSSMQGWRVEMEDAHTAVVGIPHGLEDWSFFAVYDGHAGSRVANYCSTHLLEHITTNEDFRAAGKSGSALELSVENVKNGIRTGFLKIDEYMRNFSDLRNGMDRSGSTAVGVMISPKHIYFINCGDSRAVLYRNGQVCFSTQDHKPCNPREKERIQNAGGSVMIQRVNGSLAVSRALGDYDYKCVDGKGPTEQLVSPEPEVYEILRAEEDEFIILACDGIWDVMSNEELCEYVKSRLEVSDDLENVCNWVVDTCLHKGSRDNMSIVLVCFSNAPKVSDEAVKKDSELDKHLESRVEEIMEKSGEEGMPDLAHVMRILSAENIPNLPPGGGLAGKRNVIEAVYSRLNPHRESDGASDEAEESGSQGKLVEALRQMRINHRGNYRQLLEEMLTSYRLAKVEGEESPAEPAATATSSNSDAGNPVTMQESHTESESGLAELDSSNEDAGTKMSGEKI

Legend:
Assay in all cases: log2 fold change, soluble protein after heating vs DMSO (PISA); higher = thermal stabilisation; K562 cells, 10 uM, 30 min; active = over 0.2 and 3.5 SD of the protein, either way, in both replicates (recomputed)
[1] = compound: CC1=C(C=C(C=C1)NC(=O)C2=CC(=CC=C2)C(C)(C)C#N)NC3=CC4=C(C=C3)N=CN(C4=O)C
Method in brief: (§1)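 K562 cells at 2×10^6 cells/mL were treated for 30 min with 10 μM compound, and aliquots were heated for 3 min over 48°C-58°C before pooling. Extraction used PBS with 0.5% NP-40 at 4°C, and soluble protein was the supernatant after 21,000xg for 90 min, measured by TMTpro 16plex LC-MS/MS with channel sums equalised. Thermal stability values, relative to control samples and from duplicates, are log2 fold changes.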

[2] = compound: CC1=C(C=C(C=C1)NC(=O)C2=CC(=CC=C2)N(C)C)NC(=O)C3=CC=C(C=C3)O
Method in brief: as §1

[3] = compound: CC1=CC=C(C=C1)SC2=C3C=C(SC3=CN=C2)C(=O)N
Method in brief: as §1

[4] = compound: CC1=NC(=CC=C1)C2=C(N=C(N2)C(C)(C)C)C3=CC4=NC=CN=C4C=C3
Method in brief: as §1

Nexturastat A = compound: CCCCN(Cc1ccc(C(=O)NO)cc1)C(=O)Nc1ccccc1 [Nexturastat A]
Method in brief: as §1

vemurafenib = compound: CCCS(=O)(=O)Nc1ccc(F)c(C(=O)c2c[nH]c3ncc(-c4ccc(Cl)cc4)cc23)c1F [vemurafenib]
Method in brief: as §1

[5] = compound: CCCS(=O)(=O)Nc1ccc(F)c(C(=O)c2c[nH]c3ncc(Cl)cc23)c1F
Method in brief: as §1

[6] = compound: CCCc1cc(C)[nH]c(=O)c1CNC(=O)c1cc(-c2ccnc(N3CCN(C)CC3)c2)cc2c1cnn2C(C)C
Method in brief: as §1

givinostat = compound: CCN(CC)Cc1ccc2cc(COC(=O)Nc3ccc(C(=O)NO)cc3)ccc2c1 [givinostat]
Method in brief: as §1

barasertib = compound: CCN(CCCOc1ccc2c(Nc3cc(CC(=O)Nc4cccc(F)c4)[nH]n3)ncnc2c1)CCOP(=O)(O)O [barasertib]
Method in brief: as §1

Target	log2 fold change [1]	log2 fold change [2]	log2 fold change [3]	log2 fold change [4]	log2 fold change (Nexturastat A)	log2 fold change (vemurafenib)	log2 fold change [5]	log2 fold change [6]	log2 fold change (givinostat)	log2 fold change (barasertib)
POLR2M (UniProt P0CAP2)	inactive: 0.007	inactive: -0.014	inactive: 0.027	inactive: 0	inactive: -0.019	inactive: 0.021	inactive: -0.062	inactive: 0	inactive: -0.031	inactive: -0.009
PLSCR1 (UniProt O15162)	inactive: 0.13	inactive: 0.06	inactive: 0.025	inactive: -0.002	inactive: 0.008	inactive: -0.05	inactive: 0.088	inactive: -0.101	inactive: -0.033	inactive: -0.104
PPIH (UniProt O43447)	inactive: 0.022	inactive: -0.001	inactive: -0.008	inactive: 0.077	inactive: 0	inactive: -0.016	inactive: 0.044	inactive: -0.032	inactive: 0.014	inactive: 0.025
PLS1 (UniProt Q14651)	inactive: 0.017	inactive: -0.023	inactive: 0.011	inactive: 0.021	inactive: -0.029	inactive: 0.035	inactive: 0.051	inactive: -0.002	inactive: 0.02	inactive: -0.008
POLR1A (UniProt O95602)	inactive: -0.082	inactive: -0.019	inactive: -0.198	inactive: -0.185	active: 0.489	inactive: 0.052	inactive: 0.062	inactive: 0.321	inactive: 0.083	inactive: 0.016
PLXNB2 (UniProt O15031)	inactive: -0.013	inactive: 0.021	inactive: 0.014	inactive: -0.047	inactive: -0.011	inactive: 0.059	inactive: -0.004	inactive: 0.053	inactive: 0.042	inactive: 0.084
PMM1 (UniProt Q92871)	inactive: -0.164	inactive: 0.007	inactive: -0.037	inactive: 0.027	inactive: -0.037	inactive: -0.007	inactive: -0.012	inactive: -0.165	inactive: -0.013	inactive: -0.003
PPCDC (UniProt Q96CD2)	inactive: 0.005	inactive: -0.082	inactive: 0.034	inactive: 0.025	inactive: 0.087	inactive: 0.002	inactive: 0.001	inactive: -0.144	inactive: 0.057	inactive: 0.057
POMGNT1 isoform 2 (UniProt Q8WZA1)	inactive: -0.067	inactive: 0	inactive: -0.081	inactive: -0.06	inactive: 0.073	inactive: -0.05	inactive: -0.121	inactive: 0.322	inactive: -0.017	inactive: 0.001
PNKD isoform 2 (UniProt Q8N490)	inactive: -0.067	inactive: -0.011	inactive: -0.044	inactive: -0.027	inactive: 0.031	inactive: 0.036	inactive: -0.029	inactive: -0.022	inactive: -0.033	inactive: 0.041
POLG (UniProt P54098)	inactive: 0.042	inactive: 0.061	inactive: -0.038	inactive: -0.117	inactive: 0.069	inactive: -0.111	inactive: -0.086	inactive: 0.032	inactive: -0.004	inactive: 0.031
POFUT1 (UniProt Q9H488)	inactive: 0.039	inactive: -0.01	inactive: -0.038	inactive: -0.003	inactive: -0.013	inactive: -0.014	inactive: -0.026	inactive: 0.035	inactive: -0.009	inactive: -0.002
POLR1D (UniProt P0DPB6)	inactive: 0.086	inactive: -0.065	inactive: 0.138	inactive: 0.088	inactive: 0.126	inactive: -0.173	inactive: 0.049	inactive: 0.085	inactive: 0.029	inactive: 0.043
POLR3A (UniProt O14802)	inactive: 0.139	inactive: -0.033	inactive: 0	inactive: -0.007	inactive: 0.183	inactive: 0.087	inactive: 0.11	inactive: 0.082	inactive: 0.058	inactive: 0.015
PLIN3 (UniProt O60664)	inactive: 0.003	inactive: 0.04	inactive: 0.036	inactive: 0.052	inactive: -0.128	inactive: -0.001	inactive: 0.015	inactive: -0.042	inactive: -0.023	inactive: -0.009
PMF1 (UniProt Q6P1K2)	inactive: -0.009	inactive: 0.036	inactive: 0.011	inactive: 0.087	inactive: 0.041	inactive: 0.072	inactive: 0.198	inactive: -0.094	inactive: -0.026	inactive: -0.018
PMPCA (UniProt Q10713)	inactive: 0.046	inactive: -0.049	inactive: 0.014	inactive: 0.006	inactive: -0.102	inactive: 0.025	inactive: 0.037	inactive: -0.006	inactive: -0.019	inactive: -0.027
POTEF (UniProt A5A3E0)	inactive: -0.033	inactive: 0.012	inactive: 0.023	inactive: 0	inactive: -0.008	inactive: -0.046	inactive: 0.003	inactive: -0.025	inactive: -0.029	inactive: -0.018
POLDIP3 (UniProt Q9BY77)	inactive: -0.011	inactive: -0.01	inactive: -0.027	inactive: 0.004	inactive: -0.065	inactive: -0.024	inactive: -0.051	inactive: -0.032	inactive: 0.062	inactive: -0.065
POLR3B (UniProt Q9NW08)	inactive: 0.024	inactive: -0.062	inactive: -0.008	inactive: 0.022	inactive: 0.026	inactive: 0.003	inactive: 0.172	inactive: 0.063	inactive: 0.138	inactive: 0.114
PLK1 (UniProt P53350)	inactive: 0.003	inactive: -0.052	inactive: -0.03	inactive: -0.012	inactive: 0.003	inactive: 0.018	inactive: 0.029	inactive: 0.042	active: -0.314	inactive: 0.015
PNP (UniProt P00491)	inactive: -0.02	inactive: -0.007	inactive: -0.006	inactive: 0.004	inactive: -0.047	inactive: -0.006	inactive: -0.017	inactive: -0.02	inactive: -0.021	inactive: -0.005
PPFIA1 (UniProt Q13136)	inactive: 0.011	inactive: 0.03	inactive: 0.019	inactive: -0.052	inactive: -0.012	inactive: -0.031	inactive: 0.043	inactive: 0.085	inactive: 0.136	inactive: 0.035
PMPCB (UniProt O75439)	inactive: 0.012	inactive: -0.063	inactive: -0.009	inactive: 0.03	inactive: -0.07	inactive: 0.06	inactive: -0.019	inactive: -0.015	inactive: -0.042	inactive: 0.01
PLIN2 (UniProt Q99541)	inactive: 0.069	inactive: 0.018	inactive: 0.109	inactive: 0.022	inactive: 0.082	inactive: 0.01	inactive: 0.042	inactive: -0.12	inactive: -0.014	inactive: 0.013
PML (UniProt P29590)	inactive: -0.024	inactive: -0.001	inactive: -0.009	inactive: -0.02	inactive: -0.002	inactive: -0.044	inactive: 0.018	inactive: -0.007	inactive: -0.014	inactive: 0.01
PPM1B (UniProt O75688)	inactive: 0.016	inactive: -0.021	inactive: 0	inactive: -0.001	inactive: -0.015	inactive: 0.037	inactive: -0.01	inactive: -0.037	inactive: -0.025	inactive: 0.007
PPIL2 (UniProt Q13356)	inactive: 0.005	inactive: -0.084	inactive: 0.04	inactive: 0.023	inactive: -0.059	inactive: 0.113	inactive: 0.123	inactive: 0.016	inactive: 0.123	inactive: 0.073
PNPO (UniProt Q9NVS9)	inactive: 0.012	inactive: -0.035	inactive: 0.025	inactive: -0.011	inactive: -0.075	inactive: -0.013	inactive: -0.019	inactive: 0.051	inactive: 0.016	inactive: -0.001
POLR2C (UniProt P19387)	inactive: -0.097	inactive: -0.058	inactive: 0.038	inactive: -0.011	inactive: 0.126	inactive: 0.021	inactive: 0.066	inactive: -0.005	inactive: 0.042	inactive: 0.022

Rewritten in markdown: part of the list above

| Target | log2 fold change [1] | log2 fold change [2] | log2 fold change [3] | log2 fold change [4] | log2 fold change (Nexturastat A) | log2 fold change (vemurafenib) | log2 fold change [5] | log2 fold change [6] | log2 fold change (givinostat) | log2 fold change (barasertib) |
| --- | --- | --- | --- | --- | --- | --- | --- | --- | --- | --- |
| PNP (UniProt P00491) | inactive: -0.02 | inactive: -0.007 | inactive: -0.006 | inactive: 0.004 | inactive: -0.047 | inactive: -0.006 | inactive: -0.017 | inactive: -0.02 | inactive: -0.021 | inactive: -0.005 |
| PPFIA1 (UniProt Q13136) | inactive: 0.011 | inactive: 0.03 | inactive: 0.019 | inactive: -0.052 | inactive: -0.012 | inactive: -0.031 | inactive: 0.043 | inactive: 0.085 | inactive: 0.136 | inactive: 0.035 |
